Data as given in PubChem BioAssay AID588590 (National Center for Advancing Translational Sciences (NCATS), 2011).
The campaign covered roughly 390,000 compounds. About 4,000 (1%) were called active. The shares of active, inactive and inconclusive entries below differ from those in the screen. Calls come from the whole dose curve; as a rule, active = well fitted inhibition curve with a large enough effect; inconclusive = small, poorly fitted or top-dose-only effect, or another doubt; inactive = no such curve, though single readings can be large or run the other way. Where the call is inconclusive, the potency comes from a doubtful curve fit.

The chains behind the UniProt entries cited, without tags or fusion partners. Where a name states a change or a piece, a line headed by the entry shows the natural chain unless it says otherwise.
UniProt Q9UNA4: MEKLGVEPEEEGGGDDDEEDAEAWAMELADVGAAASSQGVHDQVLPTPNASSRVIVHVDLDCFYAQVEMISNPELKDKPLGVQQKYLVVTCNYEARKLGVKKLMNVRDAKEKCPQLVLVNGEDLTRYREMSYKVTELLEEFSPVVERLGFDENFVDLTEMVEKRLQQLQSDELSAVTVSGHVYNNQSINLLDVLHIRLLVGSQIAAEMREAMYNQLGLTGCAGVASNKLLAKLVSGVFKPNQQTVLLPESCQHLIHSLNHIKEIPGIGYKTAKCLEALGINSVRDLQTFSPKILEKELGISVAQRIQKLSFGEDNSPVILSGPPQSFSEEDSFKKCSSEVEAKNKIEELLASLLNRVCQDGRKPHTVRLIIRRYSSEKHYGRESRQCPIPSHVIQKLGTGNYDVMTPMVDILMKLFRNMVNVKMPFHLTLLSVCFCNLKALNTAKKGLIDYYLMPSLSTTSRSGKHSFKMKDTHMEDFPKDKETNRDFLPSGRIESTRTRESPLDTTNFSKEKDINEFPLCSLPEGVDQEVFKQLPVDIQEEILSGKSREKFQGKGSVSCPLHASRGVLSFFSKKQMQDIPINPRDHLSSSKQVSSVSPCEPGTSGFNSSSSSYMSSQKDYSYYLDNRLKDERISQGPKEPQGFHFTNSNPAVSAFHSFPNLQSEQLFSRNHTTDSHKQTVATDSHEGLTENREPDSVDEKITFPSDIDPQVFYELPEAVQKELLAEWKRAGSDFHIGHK

Target: DNA polymerase iota (Homo sapiens) (UniProt Q9UNA4)
Test: qHTS for Inhibitors of Polymerase Iota
Settings: Pol iota fluorescent replication assay, 10 min; series mostly up to 115 µM; activity, negative = inhibition: at the top concentration
Summary of the method: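 Fluorescent replication assay read twice, at 0 min and 10 min after adding 50 nM (final) substrate. Enzyme (10 nM) and compounds were first incubated 15 min at room temperature; enzyme-free buffer wells were negative controls.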
Potency is the fitted concentration of half-maximal effect.

Structure (SMILES)	Potency	activity, negative = inhibition
CCCc1nn2c(=O)c(C(c3cccc(Cl)c3)c3c(O)nc4sc(CCC)nn4c3=O)c(O)nc2s1	inconclusive: 12.6 µM [inhibitor, full curve]	
CN1CCN(NC(=O)CN2C(=O)/C(=C/c3ccccc3Cl)SC2=S)CC1	inconclusive: 28.2 µM [inhibitor, single point]	
O=C(O)[C@@H]1C[C@H](C(=O)O)N1	inconclusive: 100 µM [inhibitor, single point]	
COc1cc(C2C(C#N)=C(N)OC3=C2C(=O)CC(C)(C)C3)cc([N+](=O)[O-])c1O (stereo not drawn)	inconclusive: 39.8 µM [inhibitor, single point]	
Cc1ccc(S(=O)(=O)N(CC(=O)O)Cc2ccco2)cc1	active: 28.2 µM	
Cc1ccsc1C(=O)NNC(=O)c1ccc(NS(=O)(=O)c2cccs2)cc1	inconclusive: 28.2 µM [inhibitor, single point]	
O=C(COc1ccccc1)Nc1nnc(S(=O)(=O)N2CCCCCC2)s1	inconclusive: 31.6 µM [inhibitor, single point]	
COc1ccc2cc(C(=O)N/N=C/c3cc(OC)c(OC)c(OC)c3)[nH]c2c1	inconclusive: 5.62 µM [inhibitor, full curve, poor fit]	
CCOC(=O)c1ccc(N2C(=O)c3[nH]nc(-c4ccc(OCC)cc4)c3C2c2ccc(OC)cc2OC)cc1 (stereo not drawn)	inconclusive: 22.4 µM [inhibitor, partial curve, poor fit]	
CN(C)CCNC(=O)c1ccc2c(c1)NC(=O)c1ccccc1S2	inconclusive: 2.82 µM [inhibitor, full curve, poor fit]	
O=C(Nc1cccnc1)c1cc(-c2ccco2)on1	inconclusive: 31.6 µM [inhibitor, single point]	
O=C(CSc1nc(-c2ccccc2)[nH]c1-c1ccccc1)Nc1ccc2c(c1)OCCO2		inactive: 13.5%
CCOC(=O)c1c(C)oc2c1c1c(c3ccccc32)OCN(CCCC(=O)O)C1	inconclusive: 39.8 µM [inhibitor, single point]	
Cc1ccc2nc(-c3cccnc3)cc(C(=O)Nc3ccccc3[N+](=O)[O-])c2c1	inconclusive: 39.8 µM [inhibitor, single point]	
Cc1[nH][nH]c(=O)c1C(c1ccc([N+](=O)[O-])cc1)c1c(C)[nH][nH]c1=O	inconclusive: 15.8 µM [inhibitor, partial curve, poor fit]	
CCCCC(NC(=O)Cc1c(C)c2cc3c(-c4ccccc4)coc3c(C)c2oc1=O)C(=O)O (stereo not drawn)	inconclusive: 31.6 µM [inhibitor, full curve]	
COC(=O)c1c(NC(=O)C(Cl)Cl)sc2c1C(C(=O)OC)CC2 (stereo not drawn)	inconclusive: 0.708 µM [inhibitor, full curve, poor fit]	
O=S(=O)(Nc1nc2ccccc2nc1NCc1ccco1)c1ccc(Cl)cc1	inconclusive: 20 µM [inhibitor, partial curve, poor fit]	
O=C(O)C1CCCCC1C(=O)N1CC=C(c2ccccc2)CC1 (stereo not drawn)		inactive: 22.4%
O=C1c2cccc3c(N4CCCCC4)ccc(c23)C(=O)N1c1ccccc1O	inconclusive: 100 µM [inhibitor, single point]	
Cc1ccc(Nc2cc(C)c(C#N)c3nc4ccccc4n23)cc1Cl		inactive: 3.36%

Quoted at random: four compounds from above
Structure (SMILES)	Potency	activity, negative = inhibition
O=S(=O)(Nc1nc2ccccc2nc1NCc1ccco1)c1ccc(Cl)cc1	inconclusive: 20 µM [inhibitor, partial curve, poor fit]	
CN1CCN(NC(=O)CN2C(=O)/C(=C/c3ccccc3Cl)SC2=S)CC1	inconclusive: 28.2 µM [inhibitor, single point]	
Cc1ccsc1C(=O)NNC(=O)c1ccc(NS(=O)(=O)c2cccs2)cc1	inconclusive: 28.2 µM [inhibitor, single point]	
Cc1[nH][nH]c(=O)c1C(c1ccc([N+](=O)[O-])cc1)c1c(C)[nH][nH]c1=O	inconclusive: 15.8 µM [inhibitor, partial curve, poor fit]	

Additional entries follow:

Structure (SMILES)	Potency	activity, negative = inhibition
O=C(NCC(c1ccco1)N1CCc2ccccc2C1)c1ccc(Br)cc1 (stereo not drawn)		inactive: 8.41%
O=C(O)C(C(=O)Oc1ccccc1)C(C(=O)O)C(=O)Oc1ccccc1 (stereo not drawn)	inconclusive: 100 µM [inhibitor, single point]	
CC(C)CN1C(=O)c2ccc(C(=O)Nc3ccncc3)cc2C1=O	inconclusive: 79.4 µM [inhibitor, partial curve, poor fit]	
COc1cc(/C=C2\SC(=S)N(NC(C)=O)C2=O)ccc1OC(=O)c1ccco1		inactive: 73.2%
CCc1c(C)nc2ncnn2c1Nc1ccc(C)c(C)c1	inconclusive: 5.62 µM [inhibitor, full curve, poor fit]	
CC(C)CC1C(C#N)=C(N)SC(N)=C1C#N	inconclusive: 20 µM [inhibitor, single point]	
O=C(c1ccc(Cl)c(Cl)c1)N1CCCC1	inconclusive: 35.5 µM [inhibitor, single point]	
Cc1ccccc1NC(=O)NC1(C(=O)N2CCOCC2)CCCCC1		inactive: -0.995%
O=C(CCC(=O)c1ccccc1)Nc1ccc(C(=O)O)cc1	inconclusive: 79.4 µM [inhibitor, partial curve, poor fit]	
Cc1nn(CC(=O)NCCc2ccccc2Cl)c(=O)c2nn(-c3ccccc3)c(C)c12		inactive: 12.2%
Cc1ccc(Cl)cc1NS(=O)(=O)c1ccc2c(c1)NC(=O)C(C)C(=O)N2 (stereo not drawn)	inconclusive: 12.6 µM [inhibitor, single point]	
Fc1ccc2[nH]c3c(NCc4ccco4)ncnc3c2c1	inconclusive: 89.1 µM [inhibitor, single point]	
O=[N+]([O-])c1c(Nc2ccc(O)cc2)cc(N2CCOCC2)c2nonc12		inactive: -7.1%
COc1ccc(CC(=O)NC(C)c2ccc3ccccc3c2)cc1 (stereo not drawn)	inconclusive: 56.2 µM [inhibitor, partial curve, poor fit]	
Cc1cc(NC(=O)COC(=O)c2ccccc2OCCOc2ccccc2)ccc1Br	inconclusive: 89.1 µM [inhibitor, single point]	
Cc1ccc(/C=C/c2nc3ccccc3n2S(=O)(=O)c2cccc(Cl)c2)cc1		inactive: -28.1%
CSc1ccc(/C=N/NC(=O)C[n+]2ccccc2)cc1	inconclusive: 89.1 µM [inhibitor, single point]	
CCOC(=O)c1c(NC(=O)Cn2cnc3sc(C)c(-c4ccccc4)c3c2=O)sc(C)c1C	inconclusive: 79.4 µM [inhibitor, partial curve, poor fit]	
CC(CC(=O)NCc1ccc(Cl)cc1Cl)CC1=NS(=O)(=O)c2ccccc2N1 (stereo not drawn)	inconclusive: 100 µM [inhibitor, partial curve, poor fit]	
O=C(NCC1CCCO1)c1ccc(NS(=O)(=O)c2cccs2)cc1 (stereo not drawn)	inconclusive: 22.4 µM [inhibitor, full curve]	
O=C1C=C(c2ccc(C(=O)O)cc2)C[C@@H](c2ccc3c(c2)OCO3)C1	inconclusive: 20 µM [inhibitor, full curve, poor fit]	

Structure (SMILES)	Potency	activity, negative = inhibition
Cc1cc(NC(=O)CSc2nc3c(c(=O)n(C)c(=O)n3C)n2C(C)C)no1	inconclusive: 79.4 µM [inhibitor, partial curve]	
O=Nc1nc2ncccn2c1-c1ccccc1	active: 22.4 µM	
CCOc1ccc(S(=O)(=O)N(CC(=O)N/N=C/c2ccc(-c3ccc([N+](=O)[O-])cc3)o2)c2ccccc2)cc1	inconclusive: 3.55 µM [inhibitor, full curve, poor fit]	
Cc1cccc2cc(-c3nc4ccc(C(=O)O)cc4[nH]3)c(=O)oc12	inconclusive: 12.6 µM [inhibitor, full curve, poor fit]	
O=C(N/N=C/c1ccc2c(c1)OCO2)c1ccc(COCC(F)(F)C(F)F)cc1	inconclusive: 79.4 µM [inhibitor, single point]	
COc1ccc(-n2nnnc2S(=O)(=O)Cc2ccc(C(=O)O)cc2)cc1	inconclusive: 17.8 µM [inhibitor, partial curve, poor fit]	
O=C(c1ccccc1NS(=O)(=O)c1ccc([N+](=O)[O-])cc1[N+](=O)[O-])N1O[C@@H]2C=C[C@H]1C2	inconclusive: 31.6 µM [inhibitor, full curve, poor fit]	
COc1ccc(-c2nc3ccc(Cl)cn3c2NC2CCCCC2)cc1SC1CCCCC1	inconclusive: 14.1 µM [inhibitor, partial curve]	
CC1CCc2c(sc(NC(=O)COC(=O)C3CCCO3)c2C#N)C1 (stereo not drawn)	inconclusive: 79.4 µM [inhibitor, single point]	
CCc1ccc(NC(=O)CSc2cn(CC(=O)N3CCOCC3)c3ccccc23)cc1		inactive: 28.6%
CN1c2ccccc2C(C)(C)C12C=Nc1c(ccc3ccccc13)O2 (stereo not drawn)	inconclusive: 35.5 µM [inhibitor, partial curve, poor fit]	
C=C(C)Cn1c(SCC(=O)Nc2cccc(C)c2)nc2sc3c(c2c1=O)CCCC3	inconclusive: 89.1 µM [inhibitor, single point]	
O=C(CCS(=O)(=O)c1nc(-c2ccc3c(c2)OCO3)cc(C(F)(F)F)n1)Nc1ccc(F)cc1F	inconclusive: 15.8 µM [inhibitor, full curve, poor fit]	
COc1ccc(CNC(=O)c2cccnc2)cc1	inconclusive: 89.1 µM [inhibitor, single point]	
O=C(O)c1ccc(-c2nc(-c3ccccc3)cs2)cc1	inconclusive: 89.1 µM [inhibitor, partial curve]	
CCCCc1nnc(NC(=O)C2CC(=O)N(c3ccc4c(c3)OCCO4)C2)s1 (stereo not drawn)		inactive: 197%
CC1=C/C(=C(/c2cc(C)c(O)c(Br)c2)c2ccccc2S(=O)(=O)O)C=C(Br)C1=O	inconclusive: 15.8 µM [inhibitor, full curve, poor fit]	
Cc1cccc(CCNC(=O)c2nn(C)c3c2CSc2ccccc2-3)c1		inactive: 5.76%
Cc1nc2cc(N)ccc2n1C1CCCCC1	inconclusive: 39.8 µM [inhibitor, single point]	
COc1ccc(NC(=O)/C(C#N)=C/c2ccc(Br)o2)cc1	active: 22.4 µM	
Cc1ccc(CN2CCN(c3ncccn3)CC2)o1	inconclusive: 79.4 µM [inhibitor, partial curve]	
